# Experimental data taken from PubChem BioAssay AID540256 (National Center for Advancing Translational Sciences (NCATS), 2011).
# The campaign covered roughly 300,000 compounds. About 3,700 (1.2%) were called active. Calls come from the whole dose curve; tested in HEK293 cells. Inconclusive results, whose numbers are uncertain, are shown. Potencies beside an inconclusive call are fits to weak or partial responses and may not hold up.
# Test: qHTS for Inhibitors of binding or entry into cells for Lassa Virus; note: nearly all actives have a fitted effect of over 50% in size
# Conditions: Lassa virus pseudotype entry inhibition, cell reporter; series mostly up to 37.9 µM
# Potency is the fitted concentration of half-maximal effect.
row,SMILES,Potency
1,COc1cc(/C=C2\C(=N)N3N=C(S(C)(=O)=O)SC3=NC2=O)cc(OC)c1OCCOc1cccc(C)c1,"inconclusive: 1260 nM [inhibitor, full curve, poor fit]"
